Laboratory results reported in patent US10501497B2, “Cyclic polypeptides, method for obtaining them and the therapeutic use thereof” (AXOLTIS PHARMA, priority 2015, dated 2019).
Part of at least one peptide drawing is inferred or uncertain, most often the ends. Bridge positions count the residues as written; N and C are the ends. Peptide text beside a SMILES is read from it.

Tested on: B104 cells
Assay: B104 neuroblastoma cells in serum-free medium: number of cells, neurites, neurite length
Format: cell-based, rat

## N=C(N)NCCC[C@@H]1NC(=O)[C@H](CO)NC(=O)[C@@H](NC(=O)[C@H](CO)NC(=O)[C@H](CO)NC(=O)[C@H](Cc2c[nH]c3ccccc23)NC(=O)CNC(=O)[C@H](CO)NC(=O)[C@@H](N)Cc2c[nH]c3ccccc23)CSSC[C@@H](C(=O)NCC(=O)O)NC(=O)[C@H](CO)NC1=O [SEQ ID NO: 2, W-S-G-W-S-S-C-S-R-S-C-G] (H-WSGWSSCSRSCG-OH; disulfide 7-11)
As of 24 h, serum-free medium
  number of B104 cells compared to the control condition: 5 times
serum-free medium, FIG. 6
  effect on the number of neurites per cell: increases
serum-free medium, FIG. 7, up to 3 days of culture
  effect on neurite length: increases
Whatever its concentration (150-1000 μg/ml), 1-3 days
  effect on the number of sproutings: no effect
